{
  "source": "paper PMC4751086",
  "binders": {"B1": {"name": "HA–CHMP4B (protein, UniProt Q9H444 1-224)", "chain": "MSVFGKLFGAGGGKAGKGGPTPQEAIQRLRDTEEMLSKKQEFLEKKIEQELTAAKKHGTKNKRAALQALKRKKRYEKQLAQIDGTLSTIEFQREALENANTNTEVLKNMGYAAKAMKAAHDNMDIDKVDELMQDIADQQELAEEISTAISKPVGFGEEFDEDELMAELEELEQEELDKNLLEISGPETVPLPNVPSIALPSKPAKKKEEEDDDMKELENWAGSM"}},
  "key": {"[1]": {"target": "T1, Flag–HD-PTP(1–712) (human) (UniProt Q9H3S7)", "T1 sequence": "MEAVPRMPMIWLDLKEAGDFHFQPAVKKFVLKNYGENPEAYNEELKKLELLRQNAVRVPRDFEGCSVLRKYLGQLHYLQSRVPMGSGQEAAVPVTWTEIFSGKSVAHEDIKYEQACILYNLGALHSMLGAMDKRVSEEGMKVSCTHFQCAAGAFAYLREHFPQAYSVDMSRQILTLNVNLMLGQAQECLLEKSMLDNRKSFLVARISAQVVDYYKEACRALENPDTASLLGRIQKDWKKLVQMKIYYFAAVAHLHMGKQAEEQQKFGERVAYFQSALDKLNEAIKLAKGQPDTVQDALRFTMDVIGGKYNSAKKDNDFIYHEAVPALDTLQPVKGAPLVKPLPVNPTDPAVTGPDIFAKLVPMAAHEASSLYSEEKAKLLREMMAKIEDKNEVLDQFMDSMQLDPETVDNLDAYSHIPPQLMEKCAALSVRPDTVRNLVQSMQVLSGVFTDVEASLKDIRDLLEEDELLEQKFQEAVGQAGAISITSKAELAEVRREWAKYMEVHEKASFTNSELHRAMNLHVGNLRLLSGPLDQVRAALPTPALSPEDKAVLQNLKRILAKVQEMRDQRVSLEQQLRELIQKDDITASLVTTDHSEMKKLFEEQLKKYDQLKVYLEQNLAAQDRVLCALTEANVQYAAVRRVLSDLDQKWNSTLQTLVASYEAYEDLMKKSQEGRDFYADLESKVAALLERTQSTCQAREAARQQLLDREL", "test": "co-IP; HEK293 cells transiently transfected with Flag-tagged HD-PTP(1–712) variants and HA-tagged STAM2 or CHMP4B; lysis in 50 mM Tris-HCl (pH 7.5), 150 mM NaCl, 1% Nonidet P40, 0.5% sodium deoxycholate, 1 mM EDTA; anti-HA agarose or anti-Flag M2 agarose; immunoblotting"}, "[2]": {"target": "T2, HD-PTP(1–712;T145K) (human) (UniProt Q9H3S7)", "T2 sequence": "T1 sequence with T145K", "test": "co-IP; HEK293 cells transiently transfected with Flag-tagged HD-PTP(1–712) variants and HA-tagged STAM2 or CHMP4B; lysis in 50 mM Tris-HCl (pH 7.5), 150 mM NaCl, 1% Nonidet P40, 0.5% sodium deoxycholate, 1 mM EDTA; anti-HA agarose or anti-Flag M2 agarose; immunoblotting"}},
  "note": "Numbering of substitutions follows the chain as printed. No constants are given. Whether binding was seen depends on the method and setting. In cells and extracts the contact can be indirect. Some results given as binding are weak or reduced against the parent protein; the word gives no strength. Sequences can lack the tags named with a protein.",
  "data": [
    {"binder": "B1", "values": [
      {"measurement": "binding", "setting": "[1]", "value": "binds"},
      {"measurement": "binding", "setting": "[2]", "value": "binds"}
    ]}
  ]
}
